From patent publication US20200308299A1, “ANTI-GPC-1 ANTIBODY” (National University Corporation Kochi University, priority 2017, published 2020) come the findings set out here.

In this assay the target is T1, mouse Glypican-1 expressed on LLC-mGPC1-16 cells (mouse) (UniProt Q9QZF2).
T1 sequence: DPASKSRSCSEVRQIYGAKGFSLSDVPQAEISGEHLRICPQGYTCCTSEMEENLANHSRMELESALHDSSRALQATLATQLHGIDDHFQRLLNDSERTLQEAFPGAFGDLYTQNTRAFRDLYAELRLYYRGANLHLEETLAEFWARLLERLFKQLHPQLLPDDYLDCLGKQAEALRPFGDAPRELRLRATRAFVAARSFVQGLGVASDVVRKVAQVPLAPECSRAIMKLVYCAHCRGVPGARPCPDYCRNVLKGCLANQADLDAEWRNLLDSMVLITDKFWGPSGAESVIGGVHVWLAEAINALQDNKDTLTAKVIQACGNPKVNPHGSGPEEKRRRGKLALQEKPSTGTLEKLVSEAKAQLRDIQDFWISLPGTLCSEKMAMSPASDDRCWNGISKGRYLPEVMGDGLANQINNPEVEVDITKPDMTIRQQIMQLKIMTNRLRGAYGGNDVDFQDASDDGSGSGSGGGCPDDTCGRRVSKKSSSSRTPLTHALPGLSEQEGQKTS
The assay can be described thus: flow cytometry on LLC cells transfected with mouse GPC1. A general note: In flow cytometry, cells or beads pass a laser one at a time.

These are yes or no findings as the source states them, for the method shown. Some binding calls cover weakened binding; strength is not graded here.

B1: anti-Glypican-1 antibody clone K090-01a033 (antibody, mouse IgG2a, kappa, V domains shown)
VH: QVQLKQSGPELVKPGASVKISCKASGYSFTGYYMHWVKQSPEKSLEWIGEINPSTGDTTYNQKFKAKATLTVDKSSSTAYMQLKSLTSEDSAVYYCAREKRDDGVFAYWGQGTLVTVSS
VL: DIVMSQSPKSMSMSVGERVALSCKASENVGTYVSWYQQKPEQSPKLLIYGASNRYTGVPDRFTGSGSATDFTLTISSVQAEDLADYYCGQSYSYPLTFGAGTKLELKR
For B1, the binding entry was “binds”.
